No constants are given. Whether binding was seen depends on the method and setting. Binding seen in cells or lysates may run through a third protein. For part of these data: Binding calls can cover weak binding; strength is not graded here. For part of these data: Sequences can lack the tags named with a protein.
Legend:
Flag-mPrdm12 WT (mouse) = target: T1, Flag-mPrdm12 WT (mouse) (UniProt A2AJ77); assay: co-IP; HEK293T cells co-transfected; lysis in IPH buffer (150 mM NaCl, 5 mM EDTA pH 8.0, 50 mM Tris pH 8.0, 1% NP-40); immunoprecipitation with anti-Flag antibodies overnight at 4°C, Protein A Sepharose; western blot with anti-Flag or anti-Myc
T1 sequence: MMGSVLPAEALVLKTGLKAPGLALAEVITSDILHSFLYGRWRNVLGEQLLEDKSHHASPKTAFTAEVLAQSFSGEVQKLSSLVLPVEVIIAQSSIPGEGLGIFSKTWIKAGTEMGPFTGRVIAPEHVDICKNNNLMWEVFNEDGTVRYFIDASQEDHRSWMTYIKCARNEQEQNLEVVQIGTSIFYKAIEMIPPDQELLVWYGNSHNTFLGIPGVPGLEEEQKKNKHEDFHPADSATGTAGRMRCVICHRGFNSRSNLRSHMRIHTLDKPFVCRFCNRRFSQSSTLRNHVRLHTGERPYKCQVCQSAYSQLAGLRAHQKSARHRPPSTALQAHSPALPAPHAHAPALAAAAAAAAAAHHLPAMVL

The chains behind the UniProt entries cited, without tags or fusion partners. Where a name states a change or a piece, a line headed by the entry shows the natural chain unless it says otherwise. A line that says so, or that is headed by a name, gives the form on record, which may keep a tag or linker.
Myc-G9a WT (Q9Z148-2, form named): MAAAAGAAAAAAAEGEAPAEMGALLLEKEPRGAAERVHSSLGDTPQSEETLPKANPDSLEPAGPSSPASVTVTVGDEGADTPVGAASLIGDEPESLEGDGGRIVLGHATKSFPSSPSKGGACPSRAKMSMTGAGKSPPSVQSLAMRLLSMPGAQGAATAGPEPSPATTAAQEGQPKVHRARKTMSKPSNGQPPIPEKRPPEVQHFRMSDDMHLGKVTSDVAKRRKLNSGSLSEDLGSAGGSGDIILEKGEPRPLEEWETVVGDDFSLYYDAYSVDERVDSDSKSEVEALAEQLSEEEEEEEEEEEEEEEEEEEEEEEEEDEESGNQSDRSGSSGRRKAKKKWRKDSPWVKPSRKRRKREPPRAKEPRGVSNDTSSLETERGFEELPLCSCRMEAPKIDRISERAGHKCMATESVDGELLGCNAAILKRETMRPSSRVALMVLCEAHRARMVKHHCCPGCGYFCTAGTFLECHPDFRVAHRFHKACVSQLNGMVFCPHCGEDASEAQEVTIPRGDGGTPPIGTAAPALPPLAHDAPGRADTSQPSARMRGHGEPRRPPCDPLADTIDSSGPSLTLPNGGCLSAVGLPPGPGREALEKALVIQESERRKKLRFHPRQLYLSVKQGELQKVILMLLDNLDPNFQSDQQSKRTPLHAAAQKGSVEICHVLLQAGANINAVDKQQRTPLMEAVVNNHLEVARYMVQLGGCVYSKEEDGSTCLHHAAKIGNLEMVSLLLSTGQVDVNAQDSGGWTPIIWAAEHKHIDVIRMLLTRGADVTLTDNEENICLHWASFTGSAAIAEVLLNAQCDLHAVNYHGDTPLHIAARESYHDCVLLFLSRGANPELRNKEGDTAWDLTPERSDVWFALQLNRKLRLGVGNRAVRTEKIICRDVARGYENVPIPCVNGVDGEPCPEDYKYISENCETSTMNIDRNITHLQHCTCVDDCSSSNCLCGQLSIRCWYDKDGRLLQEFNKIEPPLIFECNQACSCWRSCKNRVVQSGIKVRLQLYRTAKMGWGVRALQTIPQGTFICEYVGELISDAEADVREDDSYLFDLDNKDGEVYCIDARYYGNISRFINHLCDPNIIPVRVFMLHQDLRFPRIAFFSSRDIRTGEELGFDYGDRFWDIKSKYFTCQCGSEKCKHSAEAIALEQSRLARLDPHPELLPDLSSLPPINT

[1] = target: Flag-mPrdm12 mutant lacking the ZF domain (mouse) (UniProt A2AJ77); assay: as above

## MYC-G9a ΔANK
Flag-mPrdm12 WT (mouse)
  binding: binds

## MYC-G9a ΔSET
Flag-mPrdm12 WT (mouse)
  binding: no binding

## Myc-G9a WT (from UniProt Q9Z148-2 1-1172)
[1]
  binding: no binding

Reference: paper PMC10759634
